Data published in patent US11364275B2, “Linear lipopeptide paenipeptins and methods of using the same” (priority 2017, dated 2022).
Some entries share one result that the patent states for a list of compounds. Some ranges recur; such a range may be that of the whole group of compounds. Where a SMILES comes first, the peptide text is derived from it. [ ]: non-standard residue; d: D form. The star is where a group is joined. Cha = N[C@@H](CC1CCCCC1)C(=O)O; Decanoyl = CCCCCCCCCC(=O)*; Heptanoyl = CCCCCCC(=O)*; Dab = NCC[C@H](N)C(=O)O; Cbz = O=C(OCc1ccccc1)*

What was measured:
[1] = system: most bacterial strains tested; test: MBC, comparison with lead over the strain panel; type: cell-based
[2] = system: A. baumannii FDA-CDC AR 0063; type: cell-based, Acinetobacter baumannii; conditions: A. baumannii AR 0063; TSB; within 24 h
Description: Bacterial viable counts were determined at 0, 2, 4, 6, and 24 h after antimicrobial treatment. Bacterial surviving counts at 24 h endpoints were subjected to analysis of variance (ANOVA) followed by Tukey's honest significant difference (HSD) tests using SPSS Statistics (version 24; SPSS, Inc., Chicago, Ill., USA).

Structure (SMILES) | increase in bactericidal activity compared to the lead compound (analogue 8) [1] | log reduction, analogue 4 μg/ml in combination with clarithromycin 1 μg/ml [2] | log reduction, analogue 4 μg/ml in combination with rifampicin 1 μg/ml [2]
CCCCCCCCCC(=O)N[C@@H](CCN)C(=O)N[C@H](C(=O)N[C@@H](CCN)C(=O)N[C@H](Cc1ccccc1)C(=O)N[C@@H](CC(C)C)C(=O)N[C@@H](CCN)C(=O)N[C@@H](C(=O)N[C@@H](CC(C)C)C(=O)N[C@@H](CO)C(N)=O)C(C)C)[C@@H](C)CC [Analogue 12] (Decanoyl-[Dab]I[Dab][dF]L[Dab][dV]LS-NH2) | 2-8 fold |  | 
CC[C@H](C)[C@H](NC(=O)[C@H](CCN)NC(=O)OCc1ccccc1)C(=O)N[C@@H](CCN)C(=O)N[C@H](Cc1ccccc1)C(=O)N[C@@H](CC(C)C)C(=O)N[C@@H](CCN)C(=O)N[C@@H](C(=O)N[C@@H](CC(C)C)C(=O)N[C@@H](CO)C(N)=O)C(C)C [Analogue 15] (Cbz-[Dab]I[Dab][dF]L[Dab][dV]LS-NH2) |  | 4.7-5.1 log | 4.7-5.1 log
CCCCCCC(=O)N[C@@H](CCN)C(=O)N[C@@H](Cc1ccccc1)C(=O)N[C@@H](CCN)C(=O)N[C@H](Cc1ccccc1)C(=O)N[C@@H](CC(C)C)C(=O)N[C@@H](CCN)C(=O)N[C@H](CC(C)C)C(=O)N[C@@H](Cc1ccccc1)C(=O)N[C@@H](CO)C(N)=O [Analogue 7] (Heptanoyl-[Dab]F[Dab][dF]L[Dab][dL]FS-NH2) | 2-8 fold |  | 
CC(C)C[C@H](NC(=O)[C@@H](Cc1ccccc1)NC(=O)[C@H](CCN)NC(=O)[C@H](Cc1ccccc1)NC(=O)[C@H](CCN)NC(=O)[C@@H](N)CC1CCCCC1)C(=O)N[C@@H](CCN)C(=O)N[C@H](CC(C)C)C(=O)N[C@@H](Cc1ccccc1)C(=O)N[C@@H](CO)C(N)=O [Analogue 17] (H-[Cha][Dab]F[Dab][dF]L[Dab][dL]FS-NH2) | 2-8 fold |  | 
